Reference: paper PMC7819943, “Rice protein-binding microarrays: a tool to detect cis-acting elements near promoter regions in rice”
This is one part of the list.

Sequences of proteins named here, by UniProt entry; tags and fusion partners are left off.
UniProt Q0JBA9, entry or part of it: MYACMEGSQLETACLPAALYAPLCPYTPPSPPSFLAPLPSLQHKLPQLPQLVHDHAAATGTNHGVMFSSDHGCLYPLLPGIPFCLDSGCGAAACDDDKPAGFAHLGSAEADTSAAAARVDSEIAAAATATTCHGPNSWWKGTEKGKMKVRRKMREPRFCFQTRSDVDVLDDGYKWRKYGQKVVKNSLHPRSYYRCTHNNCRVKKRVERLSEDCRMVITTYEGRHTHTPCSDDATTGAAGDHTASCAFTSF

target: OsWRKY34 (Oryza sativa, UniProt Q0JBA9 1-250); test: protein-binding microarray (RPBM); PBS, 2% BSA, 51.3 ng/ul salmon testes DNA, 50 uM zinc acetate, 200 nM TF, 25 C, 1 h; high values mean tight binding; details: protein: recombinant; tags: N-terminal polyhistidine and DsRed monomer fusion (pET32a); label: CyDye5-dUTP incorporated in the synthesized complementary strand; 3' TTTTT single-stranded linker to array surface; dsDNA, one strand shown
How it was run: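 Binding signal is defined as the fluorescence intensity of each feature in arbitrary units, read on an Axon 4000B scanner. Transcription factors with N-terminal polyhistidine and DsRed fusions came from E. coli BL21-CodonPlus and were purified on Ni–NTA. They were incubated at 200 nM for 1 h at 25 °C on a custom Agilent array that had been made double-stranded with Cy5-dUTP, with 50 µM zinc acetate present, and the array was washed.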

Sequence	binding signal
TGTTGTTTCTCTCTCTGTCTCGCTGTCTGTTGCCACCATTCGGAGTCACCTAGTGCAG	12300 fluorescence intensity (a.u.)
GATTGGTCTCATTTGTGTTCGCGAAAAAATTTTCCATGGACGGAGTCACCTAGTGCAG	10800 fluorescence intensity (a.u.)
ATGCTTGTGCAGTTGTGTTATTTGTTGCTCCAAACCACTACGGAGTCACCTAGTGCAG	9730 fluorescence intensity (a.u.)
ACAGGGCGGGGTGCGGTTAGATCCATGGAGATATGGAGATCGGAGTCACCTAGTGCAG	11100 fluorescence intensity (a.u.)
GATATGTGGGTCAGGATGGTATATATCAAATTTTGCAAAACGGAGTCACCTAGTGCAG	8860 fluorescence intensity (a.u.)
TCCGCCGCGGGGCCCACGGAGCAGTGGGTGGGTGGGGCCCCGGAGTCACCTAGTGCAG	9770 fluorescence intensity (a.u.)
CCACCTCGATCGTCAAATCCTCTAGCTTGTCTTTTGTTTTCGGAGTCACCTAGTGCAG	12400 fluorescence intensity (a.u.)
TCCTATGTTCTTTTTTCCTATTTATGTGTTTTCCATTCCTCGGAGTCACCTAGTGCAG	10600 fluorescence intensity (a.u.)
ATTCCTTGCTTCCACAGCCACCAAAAGTAAAACCACCCGGCGGAGTCACCTAGTGCAG	8240 fluorescence intensity (a.u.)
ACTTCTATTTTCGTCTACACCACAGTCGCCGCCGCCATTACGGAGTCACCTAGTGCAG	8560 fluorescence intensity (a.u.)
CTTGCAGGCTGAAATTTACTGGTAATGGCGTTTCTGGTCCCGGAGTCACCTAGTGCAG	9130 fluorescence intensity (a.u.)
ACCACCTCCTACCGTCCCACTCCCACGCCGCGACACACGCCGGAGTCACCTAGTGCAG	12200 fluorescence intensity (a.u.)
GGCAGGAGGAGTTTGTGAGTTAGTTTGTTTCATTTTTCGCCGGAGTCACCTAGTGCAG	9520 fluorescence intensity (a.u.)
CGGCTAGGGTTTGTTTTTCTTTTCTTTTTTTCCTTTTCTTCGGAGTCACCTAGTGCAG	14300 fluorescence intensity (a.u.)
GATGGGAAGAGGACAGCCATGAGTAGATTGCAGATTCAAGCGGAGTCACCTAGTGCAG	9160 fluorescence intensity (a.u.)
CGCAGTGCTCGTCTCCTCTCGGTCTCTCTCTTCGTCTCTCCGGAGTCACCTAGTGCAG	10500 fluorescence intensity (a.u.)
GATTCTAAACATCCACTCACACCTCATTTTTTTCATTAGCCGGAGTCACCTAGTGCAG	9350 fluorescence intensity (a.u.)
GCCTTCACATGTTTTTTTTTAATTCTCTTCTTTCTGACTGCGGAGTCACCTAGTGCAG	8340 fluorescence intensity (a.u.)
GTAGTACCTTTCACTTGCCTCTTCTTTACACAGTTCGTTCCGGAGTCACCTAGTGCAG	11200 fluorescence intensity (a.u.)
CCGTTTCGTGCAACCGCACCACACGCTAAGTGCGCGGCCGCGGAGTCACCTAGTGCAG	9090 fluorescence intensity (a.u.)
AAATTATAACGAGGGGTGAGGGGCTAAGAACCTATTTTCGCGGAGTCACCTAGTGCAG	9700 fluorescence intensity (a.u.)

Sequence	binding signal
GATACCATTCCGCTTTCACCTGCCGTTGTTGATCAGCCATCGGAGTCACCTAGTGCAG	10600 fluorescence intensity (a.u.)
GAGCTACATCTTTCCGTTGATTTGAGAAGTTCAGTTTGAGCGGAGTCACCTAGTGCAG	8310 fluorescence intensity (a.u.)
CATCGTTTTAAGGAGTGACCTCGGGTTTTTGCTCATTCATCGGAGTCACCTAGTGCAG	8970 fluorescence intensity (a.u.)
AGTACTTTTATAATGGTAATTTGTTTTTTTTAAAAAATATCGGAGTCACCTAGTGCAG	8700 fluorescence intensity (a.u.)
GATCCTGTCCATGCAGCTCACTCAGGCTTGTTCTTGTTTACGGAGTCACCTAGTGCAG	9380 fluorescence intensity (a.u.)
GTCCTTTTAAACACAAGCAACGGTTGTCATAGGTTCTGATCGGAGTCACCTAGTGCAG	8610 fluorescence intensity (a.u.)
GGGGACTTAATCGCACTGCACATGGAATGTTTTCTACTCGCGGAGTCACCTAGTGCAG	8280 fluorescence intensity (a.u.)
CATGAACGACTCTCATTTTCTCGTGTGTTTCACGCCTGGCCGGAGTCACCTAGTGCAG	8400 fluorescence intensity (a.u.)
ACACGGGACCTTACCACTCTACTATCGAGTACATCTCTGACGGAGTCACCTAGTGCAG	9280 fluorescence intensity (a.u.)
CACCATTGACTTTTTAGCACATGTTTGACCGTTCGTCTTACGGAGTCACCTAGTGCAG	14800 fluorescence intensity (a.u.)
TTATTCTATTTTTTTCATTCATATGTTTAGATTTATTAATCGGAGTCACCTAGTGCAG	8280 fluorescence intensity (a.u.)
TTTATTTAGTTGTTTCAGCTCACTCTTTTAACTAACCTTCCGGAGTCACCTAGTGCAG	9520 fluorescence intensity (a.u.)
CAAAATTGTGCTTGTTGTCTTACATGTAGCTTTAACCAAACGGAGTCACCTAGTGCAG	8270 fluorescence intensity (a.u.)
GTGCCCTTATTGTTTCGCCTATGCGTTTAAATTTTAAAACCGGAGTCACCTAGTGCAG	10800 fluorescence intensity (a.u.)
TAGCCGCCTCATCTCGCCCATTCGCTTCCCCGTCATAAAGCGGAGTCACCTAGTGCAG	8480 fluorescence intensity (a.u.)
GCCCGTGCTCTACTTGCAATACATGATTACTTCTCACGTTCGGAGTCACCTAGTGCAG	14100 fluorescence intensity (a.u.)
GATCACCGCACTGTTGGGTTCGCGACTTCTCGTATTCTCTCGGAGTCACCTAGTGCAG	8980 fluorescence intensity (a.u.)
TCAAGGGAGAGGAGAGGGAGGGTTCTGGTCCGGTCAGGACCGGAGTCACCTAGTGCAG	8580 fluorescence intensity (a.u.)
CAAAAATTATCATTTTCTCTGCACTATACCCTTATATACCCGGAGTCACCTAGTGCAG	9950 fluorescence intensity (a.u.)
GAGTTTTCCGTGTGGAGGGTGTGGATTTTTTCGTGTGTTCCGGAGTCACCTAGTGCAG	15500 fluorescence intensity (a.u.)
GGTGTCTTGATTGATATGATTTAAATTATTCTTGGTCTTGCGGAGTCACCTAGTGCAG	9570 fluorescence intensity (a.u.)

3 successive records from above:
Sequence	binding signal
ACACGGGACCTTACCACTCTACTATCGAGTACATCTCTGACGGAGTCACCTAGTGCAG	9280 fluorescence intensity (a.u.)
CACCATTGACTTTTTAGCACATGTTTGACCGTTCGTCTTACGGAGTCACCTAGTGCAG	14800 fluorescence intensity (a.u.)
TTATTCTATTTTTTTCATTCATATGTTTAGATTTATTAATCGGAGTCACCTAGTGCAG	8280 fluorescence intensity (a.u.)
